## Primary screen of a compound library

Protein sequences, listed by entry. Tags and fused reporters are not part of them.
UniProt E9BF75, entry or part of it: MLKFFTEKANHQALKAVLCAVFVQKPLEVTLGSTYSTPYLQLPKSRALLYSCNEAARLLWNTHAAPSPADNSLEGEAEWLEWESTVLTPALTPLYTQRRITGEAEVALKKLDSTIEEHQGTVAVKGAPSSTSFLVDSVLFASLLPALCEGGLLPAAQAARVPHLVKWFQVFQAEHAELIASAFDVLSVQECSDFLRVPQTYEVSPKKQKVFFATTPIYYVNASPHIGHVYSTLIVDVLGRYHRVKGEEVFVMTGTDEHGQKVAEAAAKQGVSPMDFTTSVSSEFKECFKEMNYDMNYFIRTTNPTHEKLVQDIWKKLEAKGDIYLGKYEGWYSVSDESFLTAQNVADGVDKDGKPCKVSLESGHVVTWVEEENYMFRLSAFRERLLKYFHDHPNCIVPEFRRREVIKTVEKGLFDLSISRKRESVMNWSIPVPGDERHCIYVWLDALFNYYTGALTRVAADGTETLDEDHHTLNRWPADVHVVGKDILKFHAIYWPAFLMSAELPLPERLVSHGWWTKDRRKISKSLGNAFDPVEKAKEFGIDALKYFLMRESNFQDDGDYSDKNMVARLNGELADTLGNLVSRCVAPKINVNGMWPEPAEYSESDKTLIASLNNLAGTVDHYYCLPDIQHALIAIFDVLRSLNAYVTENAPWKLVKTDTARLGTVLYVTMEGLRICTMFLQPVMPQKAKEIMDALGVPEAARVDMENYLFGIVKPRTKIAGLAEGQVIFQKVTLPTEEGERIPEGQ

Data taken from ChEMBL document CHEMBL3988442, “University of Dundee, Small-Polar-MMV Screening Library” (2021).

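Primary screen of methionyl-tRNA synthetase; the read-out is not stated. Target: Methionyl-tRNA synthetase (putative), Leishmania donovani (UniProt E9BF75). The test concentration is not given. The values are filed as inhibition. Size under these conditions: about 68,000 compounds, about 24 of them at 50% or above in at least one test.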

All values are in %.
How 0% and 100% were set is not recorded. Most values in the screen are low, and negative values occur.
The compounds are a random part of those screened.

structure,Inhibition
CN(Cc1cnn(C)c1)Cc1nc(Cc2cccc(Cl)c2)no1,3.261
NC(=O)C1CNCCN1C(=O)COc1ccccc1 (stereo unspecified),17.09
Cc1nccn1Cc1nnc(C2CCCN(c3cnccn3)C2)n1C (stereo unspecified),11.93
Cc1noc2ncc(C(=O)N3CCCC3c3cnn(C)c3)cc12 (stereo unspecified),-0.4695
Cn1ncc2c(N3CCCC(C)(O)C3)nc(-c3cccnc3)nc21 (stereo unspecified),-0.625
COCCS(=O)(=O)Nc1cc(Cl)ccn1,2.506
CCN1CC2(CCC1=O)CCN(Cc1cccc(OC(F)F)c1)CC2,11.38
CCc1noc(C(C)N2CCN(CCc3ccncc3)CC2)n1 (stereo unspecified),-0.8065
O=C(C(c1ccccc1)S(=O)(=O)c1ccccc1)N1CCCCC1 (stereo unspecified),-5.721
N#Cc1ccc(C(=O)O)nc1/C=C/c1cccc(F)c1,9.561
Cn1ccnc1CN1CCOC(Cn2cccn2)C1 (stereo unspecified),12.89
O=C(c1cccc(CNCC2CNc3ccnn3C2)c1)N1CCCC1 (stereo unspecified),13.89
CCS(=O)(=O)CCNC(=O)NCc1ccccc1-n1cccn1,9.218
CCc1nccn1CCC(=O)N1CCN(c2ccccc2C)CC1C (stereo unspecified),19.24
CCc1nccn1C1CCCN(C(=O)c2ccc(-n3ccnc3)cc2)C1 (stereo unspecified),15.67
O=C(N1CCCCC1)N1CCN(c2ccc(Cl)nn2)C(=O)C1,15.43
CN1CCN(CCCNC(=O)c2nc3ccccc3c(=O)[nH]2)CC1,16.06
O=C(c1ccc(COc2ccc(Cl)cc2)o1)N1N=CCC1(O)C(F)(F)F (stereo unspecified),-2.158
Cc1cccc(CN(C)Cc2nc3c(cnn3C)c(=O)[nH]2)c1,17.32
CC(C)CCNC(=O)c1ccc(-n2cnc3ccccc3c2=O)cc1,16.33
COC[C@H]1CN(CC2CC2)C(=O)[C@@H]2CCN(Cc3ccoc3)CC[C@H]12,14.13
O=C(NCCN1CCOCC1)c1cnc(Cc2ccc(F)cc2)s1,13.26
Cc1nc(C)n(CC2CCCN(Cc3cccc4c3OCCO4)C2)n1 (stereo unspecified),10.86
CN(CC(=O)N1CCCC1)C(=O)c1ccccc1F,10.56
O=C(CNC(=O)C1(c2ccc(F)cc2F)CCC1)Nc1cccnc1,13.04
CNc1cncc(C2CCCN(S(C)(=O)=O)C2)n1 (stereo unspecified),12.67
CCCN(CCc1ccccc1)c1ncnc2oc(C)nc12,10.47
CCc1cnc(C)nc1NC(CC)c1ncnn1CC (stereo unspecified),6.183
CC(C)(C)OC(=O)NCC1CCCCN1Cc1cccc(C(N)=O)c1 (stereo unspecified),7.829
CC(C)NC(=O)N[C@H]1C[C@@H](c2nc(-c3ccc(F)cc3)no2)N(C)C1,3.729
Cc1nccn1-c1ccc(C(C)NCc2cccn2C)cc1 (stereo unspecified),24.18
CN1CCNC(Cc2ccc(-c3ccccc3)cc2)C1=O (stereo unspecified),3.859
COCC(=O)N1CCC2(CC1)C(=O)N(Cc1cccnc1)CCN2C,0
CN(Cc1noc(C2CC2)n1)C1CCN(Cc2nnc(C3CC3)o2)C1 (stereo unspecified),4.53
Cn1ncc2c(N3CCC(CC(=O)N4CCCC4)CC3)ncnc21,14.62
Cc1c(-c2cc(C(=O)N3CCc4ncc(Cl)cc4C3)on2)cnn1C,13.35
CCc1cnc(N2CC[C@H]3[C@@H]2CCC(=O)N3c2ccccc2)nc1,1.039
CCc1nc(C)cc(N2CCN(C(=O)[C@@H]3C[C@@H]4C=C[C@H]3C4)CC2)n1,15.56
CN(Cc1ccco1)C(=O)NC(Cn1ccnc1)C(C)(C)C (stereo unspecified),13.87
CN(CC(=O)Nc1cc(-n2nnnc2C2CC2)ccc1F)C1CCC1,9.192
Cc1ccnn1CC(=O)N(C)Cc1cnn(-c2ccccc2)c1,8.527
CN1CC2(CCN(CCCOCc3ccccc3)CC2)OC1=O,22.22
O=C1C(NCc2nnc3n2CCCC3)CCN1c1ccccc1F (stereo unspecified),17.89
CCOCC1CN(Cc2cccnc2OC)Cc2cnn(C)c21 (stereo unspecified),15.6
O=C(c1ccco1)N1CCCC2(CN(Cc3ccoc3)CCO2)C1 (stereo unspecified),15.31
NC(=O)CCCNC(=O)CCc1cc(Br)cs1,14.21
CCC(NC(=O)c1cccc2[nH]ccc12)C(=O)N1CCOCC1 (stereo unspecified),13.17
CN(CCc1cccs1)C1CCCN(Cc2noc(C3CC3)n2)C1 (stereo unspecified),10.62
Cn1cnc(S(=O)(=O)NCC2(O)CCOc3ccccc32)c1 (stereo unspecified),3.623
CC(C)(C)OC(=O)N1CCN(S(C)(=O)=O)C2(CCCCC2)C1,12.9
c1cncc(N2CCOCC3(CN(Cc4cccs4)CCO3)C2)c1 (stereo unspecified),6.965
CCCOC1CCCN(c2nc(COC)nc3c2cnn3C)C1 (stereo unspecified),15.59
CCN(CCCc1ccccc1)CC1(C)Cc2c(N)nc(N)nc2O1 (stereo unspecified),6.522
CCN(Cc1ncc(C(C)(C)C)o1)Cc1ccccc1C,6.587
Cc1cnn(C2CN(CCCOc3ccc(C#N)cc3)C2)c1,16.53
Cc1ccc(CNC(=O)Nc2cc(C(F)(F)F)c[nH]c2=O)cn1,17.7
COc1ccccc1C(=O)NCCC(=O)Nc1c(C)nn(C)c1C,4.878
Cc1ccccc1-n1cc(-c2ccnc(N[C@@H](CO)C(C)C)n2)cn1,14.63
CCc1[nH]nc(NC(=O)c2cc[nH]n2)c1C,6.183
Cc1cc2nc(SCC(=O)N3CCOCC3)n(CCC(C)C)c(=O)c2[nH]1,6.997
CCc1cnc(N2C[C@H]3CN(Cc4csc(C)n4)C(=O)[C@H]3C2)nc1,12.89
Cc1ccsc1C(=O)NCc1ccnc(OCC(F)(F)F)c1,21.31
Cc1ncsc1COC(=O)c1cccc2c1OCCO2,19.05
CCn1nnc2c1C(COC)CN(Cc1ccco1)C2 (stereo unspecified),-2.186
O=C1CC(NCc2cccc(O)c2)CN1CCc1cccc(Cl)c1 (stereo unspecified),7.362
Cn1c(CC2CCS(=O)(=O)C2)nnc1SCCOc1cccc(Cl)c1 (stereo unspecified),10.04
COC1(CNC(=O)c2ccc(F)c(F)c2)CCSC1 (stereo unspecified),5.915
Cc1cnn(CC(C)NCc2nc(-c3ccsc3)oc2C)c1 (stereo unspecified),6.59

The first 4 entries again:

- CN(Cc1cnn(C)c1)Cc1nc(Cc2cccc(Cl)c2)no1 | 3.261%
- NC(=O)C1CNCCN1C(=O)COc1ccccc1 (stereo unspecified) | 17.09%
- Cc1nccn1Cc1nnc(C2CCCN(c3cnccn3)C2)n1C (stereo unspecified) | 11.93%
- Cc1noc2ncc(C(=O)N3CCCC3c3cnn(C)c3)cc12 (stereo unspecified) | -0.4695%